# Experimental data as given in PubChem BioAssay AID2685 (National Center for Advancing Translational Sciences (NCATS), 2010).
# About 2,100 (0.66%) of roughly 320,000 compounds were called active. Calls follow the shape of the dose curve; as a rule, active = well fitted inhibition curve with a large enough effect in the signal ratio, with a control signal flat (not every such curve was filed as active); inconclusive = small, poorly fitted or top-dose-only effect, or effect the other way, or a change in a side signal; inactive = flat fitted curve, though single readings scatter; the % refers to the signal ratio. Inconclusive means that the source gave no clear call. Potencies of inconclusive entries are doubtful fits and often do not repeat.
# Assay: qHTS Assay for Lipid Storage Modulators in Drosophila S3 Cells
# Settings: BODIPY lipid droplet fluorescence, 18-24 h, cells fed with added oleic acid; lipid storage change, negative = inhibition: at 46.1 µM (top of the series) unless noted
# How it was run: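 Drosophila S3 cells loaded with oleic acid (400 uM, as added) and compounds at several concentrations; lipid droplets imaged by 488-nm laser-scanning cytometry, 500–530 nm intensity and object ratio to cell channel. Percent activity normalized to 20 uM Triacsin C.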
# % is scaled to controls: 0 for no effect and ±100 for the full control effect; potency is read from the fitted curve at half-maximal effect.
SMILES,"lipid storage change, negative = inhibition",Potency
CCOc1ncccc1C(=O)OCc1c(Cl)cccc1Cl,inconclusive: 78.1%,
O=C(Oc1ccc(-c2cnc3ccccc3n2)cc1)c1cccc([N+](=O)[O-])c1,inconclusive: 9.97%,
CCn1cc(CN2CCC(n3nccc3NC(=O)c3ccccc3C)CC2)cn1,inconclusive: 73.8%,
CC(NC(=O)c1ccccc1)c1nnc(SCc2nc3ccccc3c(=O)[nH]2)n1C (configuration not stated),inconclusive: -31.6% [at 0.369 µM],
O=Cc1ccc(OCCOc2ccc([N+](=O)[O-])cc2)cc1,inconclusive: 42.8% [activator],
COc1ccc(NC(=S)NCCCN2CCN(C3CCCCC3)CC2)cc1,inconclusive: 6.43%,
COc1ccc(N2C(=NC(=O)C3CCCCC3)SC3CS(=O)(=O)CC32)cc1Cl (configuration not stated),inconclusive: -0.785%,
CC1CCCCC1NC(=O)COC(=O)c1ccc2ccccc2n1 (configuration not stated),inconclusive: 30.4%,
O=C(Cn1ccc([N+](=O)[O-])n1)N1CCCCC1,inconclusive: -34.9% [at 0.00295 µM],
CCc1nnc(NC(=O)c2ccc(S(=O)(=O)N3CCCC(C)C3)cc2)o1 (configuration not stated),,"inconclusive: 6.51 µM [falling, single point]"
COC(=O)C1(Cc2cc(-c3ccc(OC)cc3OC)no2)CCN(C(=O)OC(C)(C)C)CC1,inconclusive: 1.23%,
C=C1CCN([C@H](C(=O)NCc2ccc(Cl)cc2)C(C)C)S(=O)(=O)c2ccccc21,inconclusive: 9.37%,
CC(C)(C)c1nnc(N/N=C/c2cc(Br)ccc2O)n(N)c1=O,,"inconclusive: 18.4 µM [cytotoxic, single point]"
CC1COc2ccccc2N1S(=O)(=O)c1ccc(Cl)cc1 (configuration not stated),inconclusive: -13.9%,
Cc1c(Cl)cccc1NC(=S)NC1CC1,,"inconclusive: 0.291 µM [falling, full curve]"
CCCCN(C(=O)c1c(C)noc1C)c1c(N)n(CCCC)c(=O)[nH]c1=O,inconclusive,
O=C(Cc1ccc([N+](=O)[O-])cc1)NCc1cccnc1,inconclusive: 32.4%,
C=CCNC(=O)c1cc2c(=O)c3ccccc3oc2nc1C,,"inconclusive: 29.1 µM [cytotoxic, single point]"
CCc1ccc(OCC2c3cc(OC)c(OC)cc3CCN2C(C)=O)cc1 (configuration not stated),inconclusive: -12.1%,
Cc1ccnc(NC(=O)CCC(=O)N(CC(=O)NC2CCCCC2)c2ccc3c(c2)OCO3)c1,inconclusive: 20.3%,
COCCCNC(=O)c1cn(C)c(=O)c2cc(OC)c(OC)cc12,inconclusive: 21.3%,
COc1ccc(-c2cc(C(F)F)n3ncc(C(=O)N4CCCc5ccccc54)c3n2)cc1,inconclusive: -18.3%,

# Rewritten with bars between the fields: 6 of the compounds above
SMILES | lipid storage change, negative = inhibition | Potency
COC(=O)C1(Cc2cc(-c3ccc(OC)cc3OC)no2)CCN(C(=O)OC(C)(C)C)CC1 | inconclusive: 1.23% | 
C=C1CCN([C@H](C(=O)NCc2ccc(Cl)cc2)C(C)C)S(=O)(=O)c2ccccc21 | inconclusive: 9.37% | 
CC(C)(C)c1nnc(N/N=C/c2cc(Br)ccc2O)n(N)c1=O |  | inconclusive: 18.4 µM [cytotoxic, single point]
CC1COc2ccccc2N1S(=O)(=O)c1ccc(Cl)cc1 (configuration not stated) | inconclusive: -13.9% | 
Cc1c(Cl)cccc1NC(=S)NC1CC1 |  | inconclusive: 0.291 µM [falling, full curve]
CCCCN(C(=O)c1c(C)noc1C)c1c(N)n(CCCC)c(=O)[nH]c1=O | inconclusive | 
